The record followed here is patent publication US20090197263.

Protein sequences, listed by entry. Tags and fused reporters are not part of them. Residues count along the entry.
UniProt Q9UBB5, 145-213: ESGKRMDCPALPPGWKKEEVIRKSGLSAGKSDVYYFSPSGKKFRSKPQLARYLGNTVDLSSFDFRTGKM

pEC50: −log10 of the molar value. The exact form of at least one protein or probe is not confirmed. Some results are limits rather than exact numbers.

The target of this data set is MBD2-MBD (methyl-binding domain of MBD2) (Homo sapiens) (UniProt Q9UBB5). Nature of the data set: FP. Particulars: purified recombinant protein, protein details: C-terminal 6xHis (pFBC6H baculovirus vector, Sf9), label: 5'-6FAM, folded or branched DNA.

For “ATCGTCGTACGTTTTCGTACGACGAT [3 asymmetrically methylated CpG hairpin]”, the pEC50 (5mC at the 3 CpGs toward the 3' end (C16, C20, C23), no appreciable binding in range tested, EC50>>10 uM suggested, variant of unmethylated hairpin) was below 5.00.
Consider “ATCGTCGTACGTTTTCGTACGACGAT [3 symmetrically methylated CpG hairpin]”, for which, under “5mC at all 6 CpGs (C3, C6, C10, C16, C20, C23), 10 nM hairpin, 50 mM NaCl, 1 mM MgCl2, 10 mM Tris pH 7.4, room temp, variant of unmethylated hairpin”, the pEC50 is 6.65.
Consider “ATCGTCGTACGTTTTCGTACGACGAT [unmethylated hairpin]”, for which the pEC50 (no appreciable binding in range tested, EC50>>10 uM suggested) was below 5.00.

As a reminder, the pEC50 is the EC50 on a negative log10 scale, so that one unit is a factor of ten.
